Here are results for eight substances from PMC10850099.

Amino acid sequences for entries named in this document (tags omitted). A change or cut given only in a name is not applied to a line headed by its entry. Chains listed by the source or under a name are the forms on record and can include a tag or linker.
UniProt Q9UJQ4: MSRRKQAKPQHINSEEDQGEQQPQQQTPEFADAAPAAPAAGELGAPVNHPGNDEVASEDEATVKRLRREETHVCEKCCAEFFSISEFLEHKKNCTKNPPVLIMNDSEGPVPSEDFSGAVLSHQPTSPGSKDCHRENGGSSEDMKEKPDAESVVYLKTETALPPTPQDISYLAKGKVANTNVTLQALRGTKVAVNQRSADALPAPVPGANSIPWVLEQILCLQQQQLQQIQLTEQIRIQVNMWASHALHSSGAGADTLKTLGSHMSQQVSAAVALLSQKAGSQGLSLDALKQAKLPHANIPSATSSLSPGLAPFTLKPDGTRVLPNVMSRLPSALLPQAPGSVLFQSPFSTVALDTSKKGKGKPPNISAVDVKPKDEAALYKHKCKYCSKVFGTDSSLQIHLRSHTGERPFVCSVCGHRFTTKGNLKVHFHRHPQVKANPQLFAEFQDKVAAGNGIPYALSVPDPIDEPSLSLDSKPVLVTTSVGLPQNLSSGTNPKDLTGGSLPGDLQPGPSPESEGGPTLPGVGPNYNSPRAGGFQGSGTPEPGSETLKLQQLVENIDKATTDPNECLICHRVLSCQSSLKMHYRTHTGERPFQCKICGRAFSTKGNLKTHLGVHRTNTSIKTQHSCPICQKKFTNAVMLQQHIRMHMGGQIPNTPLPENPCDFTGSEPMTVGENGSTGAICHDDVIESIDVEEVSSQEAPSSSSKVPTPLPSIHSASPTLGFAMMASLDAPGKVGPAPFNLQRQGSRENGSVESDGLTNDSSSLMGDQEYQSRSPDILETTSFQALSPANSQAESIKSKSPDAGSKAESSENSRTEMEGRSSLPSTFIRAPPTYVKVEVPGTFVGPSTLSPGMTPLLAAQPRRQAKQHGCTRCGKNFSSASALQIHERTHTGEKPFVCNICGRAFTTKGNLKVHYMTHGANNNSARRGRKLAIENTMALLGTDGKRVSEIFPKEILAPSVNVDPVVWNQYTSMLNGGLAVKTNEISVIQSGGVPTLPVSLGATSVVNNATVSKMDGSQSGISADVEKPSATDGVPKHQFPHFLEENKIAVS
ΔZFC4-SALL4 (Q9UJQ4, form named): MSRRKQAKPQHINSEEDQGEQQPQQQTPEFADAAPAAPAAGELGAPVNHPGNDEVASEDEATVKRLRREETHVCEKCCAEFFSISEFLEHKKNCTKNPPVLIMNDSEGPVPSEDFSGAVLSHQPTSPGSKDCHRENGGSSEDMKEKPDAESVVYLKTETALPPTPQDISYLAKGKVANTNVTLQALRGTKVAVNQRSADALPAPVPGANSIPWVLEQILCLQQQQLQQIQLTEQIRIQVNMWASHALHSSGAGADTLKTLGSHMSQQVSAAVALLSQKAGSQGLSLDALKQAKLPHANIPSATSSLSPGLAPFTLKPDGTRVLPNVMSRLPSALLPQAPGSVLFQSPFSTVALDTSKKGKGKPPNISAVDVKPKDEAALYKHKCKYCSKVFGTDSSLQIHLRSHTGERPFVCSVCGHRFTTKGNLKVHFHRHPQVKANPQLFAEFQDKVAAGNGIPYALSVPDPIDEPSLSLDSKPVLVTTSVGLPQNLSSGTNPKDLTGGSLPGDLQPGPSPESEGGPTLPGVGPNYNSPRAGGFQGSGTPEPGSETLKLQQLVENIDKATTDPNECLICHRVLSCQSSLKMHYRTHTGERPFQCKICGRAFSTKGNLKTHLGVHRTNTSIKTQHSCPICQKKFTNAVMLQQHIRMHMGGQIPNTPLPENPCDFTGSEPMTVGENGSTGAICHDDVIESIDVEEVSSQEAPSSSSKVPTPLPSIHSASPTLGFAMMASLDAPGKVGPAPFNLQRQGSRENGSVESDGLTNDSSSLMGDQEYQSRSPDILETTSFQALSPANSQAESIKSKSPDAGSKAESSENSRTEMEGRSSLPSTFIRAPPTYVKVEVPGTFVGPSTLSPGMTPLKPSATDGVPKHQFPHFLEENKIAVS
ΔZFC1-SALL4 (Q9UJQ4, form named): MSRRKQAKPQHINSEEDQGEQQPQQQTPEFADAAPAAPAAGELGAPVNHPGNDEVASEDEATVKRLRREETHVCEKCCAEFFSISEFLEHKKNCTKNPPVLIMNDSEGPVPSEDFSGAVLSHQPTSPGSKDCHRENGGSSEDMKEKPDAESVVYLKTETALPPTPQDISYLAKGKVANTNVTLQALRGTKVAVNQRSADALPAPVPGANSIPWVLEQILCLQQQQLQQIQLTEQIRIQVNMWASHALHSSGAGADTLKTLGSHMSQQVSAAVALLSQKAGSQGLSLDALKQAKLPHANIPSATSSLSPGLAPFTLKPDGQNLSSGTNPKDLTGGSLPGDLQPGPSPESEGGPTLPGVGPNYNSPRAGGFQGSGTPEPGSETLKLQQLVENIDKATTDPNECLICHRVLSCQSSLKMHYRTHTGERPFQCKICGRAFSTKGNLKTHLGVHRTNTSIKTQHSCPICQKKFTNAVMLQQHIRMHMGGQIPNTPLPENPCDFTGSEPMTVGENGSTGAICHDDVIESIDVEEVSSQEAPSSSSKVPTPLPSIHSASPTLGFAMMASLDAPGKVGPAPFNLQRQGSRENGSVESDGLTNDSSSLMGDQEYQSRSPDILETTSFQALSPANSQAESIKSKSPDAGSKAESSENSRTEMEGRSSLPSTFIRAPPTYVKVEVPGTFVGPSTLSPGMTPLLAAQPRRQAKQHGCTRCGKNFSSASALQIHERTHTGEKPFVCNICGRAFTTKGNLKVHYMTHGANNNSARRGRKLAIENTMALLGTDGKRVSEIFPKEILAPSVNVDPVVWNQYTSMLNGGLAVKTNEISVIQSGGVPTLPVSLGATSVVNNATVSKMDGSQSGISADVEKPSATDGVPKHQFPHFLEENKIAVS
ΔZFC2-SALL4 (Q9UJQ4, form named): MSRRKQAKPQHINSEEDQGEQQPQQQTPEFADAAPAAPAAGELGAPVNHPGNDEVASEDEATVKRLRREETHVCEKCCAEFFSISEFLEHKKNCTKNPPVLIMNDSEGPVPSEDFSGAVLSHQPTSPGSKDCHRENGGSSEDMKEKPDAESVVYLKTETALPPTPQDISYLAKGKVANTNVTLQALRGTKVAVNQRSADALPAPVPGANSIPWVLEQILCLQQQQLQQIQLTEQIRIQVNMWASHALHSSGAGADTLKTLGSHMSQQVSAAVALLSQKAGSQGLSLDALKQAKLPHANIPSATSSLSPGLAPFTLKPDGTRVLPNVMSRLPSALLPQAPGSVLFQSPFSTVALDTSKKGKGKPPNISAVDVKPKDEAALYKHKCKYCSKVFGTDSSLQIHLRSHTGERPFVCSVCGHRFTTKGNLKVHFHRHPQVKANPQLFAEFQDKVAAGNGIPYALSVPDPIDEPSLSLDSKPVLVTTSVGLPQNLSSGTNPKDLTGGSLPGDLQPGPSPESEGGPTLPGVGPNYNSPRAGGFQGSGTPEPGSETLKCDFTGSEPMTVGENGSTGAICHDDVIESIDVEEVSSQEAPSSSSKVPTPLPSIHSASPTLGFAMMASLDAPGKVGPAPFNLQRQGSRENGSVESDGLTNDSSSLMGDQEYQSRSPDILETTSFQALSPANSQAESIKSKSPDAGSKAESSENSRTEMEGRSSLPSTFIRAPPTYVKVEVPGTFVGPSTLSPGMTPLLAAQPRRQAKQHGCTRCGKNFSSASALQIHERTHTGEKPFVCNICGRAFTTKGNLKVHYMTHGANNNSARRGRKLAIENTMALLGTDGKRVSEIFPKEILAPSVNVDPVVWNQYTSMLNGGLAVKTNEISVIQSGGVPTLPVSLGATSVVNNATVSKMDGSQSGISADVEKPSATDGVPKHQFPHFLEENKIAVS
UniProt P08151: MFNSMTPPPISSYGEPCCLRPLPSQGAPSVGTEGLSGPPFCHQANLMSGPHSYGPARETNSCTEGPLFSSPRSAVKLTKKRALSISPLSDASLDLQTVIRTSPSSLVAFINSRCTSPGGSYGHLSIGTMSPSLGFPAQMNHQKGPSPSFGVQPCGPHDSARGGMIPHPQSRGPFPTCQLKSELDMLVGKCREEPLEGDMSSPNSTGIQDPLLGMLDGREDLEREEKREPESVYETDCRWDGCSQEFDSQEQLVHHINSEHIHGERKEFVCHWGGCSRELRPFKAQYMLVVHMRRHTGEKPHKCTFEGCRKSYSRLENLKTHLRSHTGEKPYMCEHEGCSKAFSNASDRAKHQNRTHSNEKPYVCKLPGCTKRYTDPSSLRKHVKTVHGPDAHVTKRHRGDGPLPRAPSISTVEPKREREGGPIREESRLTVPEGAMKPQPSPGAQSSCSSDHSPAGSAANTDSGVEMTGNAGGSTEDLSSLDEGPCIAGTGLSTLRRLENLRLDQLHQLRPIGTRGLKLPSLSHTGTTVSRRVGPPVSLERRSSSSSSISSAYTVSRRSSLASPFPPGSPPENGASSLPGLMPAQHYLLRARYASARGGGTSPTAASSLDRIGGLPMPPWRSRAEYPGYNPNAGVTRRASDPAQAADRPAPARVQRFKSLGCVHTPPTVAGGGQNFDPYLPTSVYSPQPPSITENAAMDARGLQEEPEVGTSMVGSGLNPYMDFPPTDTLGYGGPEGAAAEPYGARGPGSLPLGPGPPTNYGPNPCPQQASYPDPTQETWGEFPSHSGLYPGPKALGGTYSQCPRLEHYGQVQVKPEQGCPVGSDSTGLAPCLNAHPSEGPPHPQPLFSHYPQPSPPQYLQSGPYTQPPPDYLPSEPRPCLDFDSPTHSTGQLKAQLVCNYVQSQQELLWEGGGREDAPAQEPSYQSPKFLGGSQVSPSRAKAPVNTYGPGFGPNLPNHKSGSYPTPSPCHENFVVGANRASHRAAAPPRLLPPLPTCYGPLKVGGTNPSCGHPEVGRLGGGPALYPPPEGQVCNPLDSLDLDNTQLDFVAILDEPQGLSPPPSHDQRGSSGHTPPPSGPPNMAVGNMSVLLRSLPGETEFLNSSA
UniProt Q13547: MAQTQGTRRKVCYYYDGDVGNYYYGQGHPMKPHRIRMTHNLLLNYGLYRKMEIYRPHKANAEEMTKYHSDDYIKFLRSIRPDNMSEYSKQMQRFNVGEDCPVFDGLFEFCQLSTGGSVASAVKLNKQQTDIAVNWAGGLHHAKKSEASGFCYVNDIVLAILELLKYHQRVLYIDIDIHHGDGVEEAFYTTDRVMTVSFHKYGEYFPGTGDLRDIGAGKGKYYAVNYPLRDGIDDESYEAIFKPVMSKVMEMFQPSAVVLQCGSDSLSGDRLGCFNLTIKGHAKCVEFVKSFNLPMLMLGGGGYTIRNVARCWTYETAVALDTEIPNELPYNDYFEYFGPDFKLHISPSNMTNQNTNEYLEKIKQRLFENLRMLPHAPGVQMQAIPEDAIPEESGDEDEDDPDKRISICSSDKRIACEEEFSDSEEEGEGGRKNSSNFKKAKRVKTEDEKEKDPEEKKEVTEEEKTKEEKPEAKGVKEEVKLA

No constants are given. Whether binding was seen depends on the method and setting. Binding seen in cells or lysates may run through a third protein. Some results given as binding are weak or reduced against the parent protein; the word gives no strength. For part of these data: Sequences can lack the tags named with a protein.

The target in one assay is T1, Flag-REN WT (UniProt Q693B1).
T1 sequence: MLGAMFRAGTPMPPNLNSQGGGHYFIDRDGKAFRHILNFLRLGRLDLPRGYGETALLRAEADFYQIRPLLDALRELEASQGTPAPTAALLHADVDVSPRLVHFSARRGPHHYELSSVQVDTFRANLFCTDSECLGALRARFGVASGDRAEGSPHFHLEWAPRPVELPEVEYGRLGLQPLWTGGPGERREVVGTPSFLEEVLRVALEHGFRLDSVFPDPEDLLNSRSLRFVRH
Briefly: co-IP; transiently transfected cells (HEK293Ts); RIPA lysate, at least 1 mg extract with primary antibody or control IgG overnight at 4 °C, protein G or A agarose 1 h at 4 °C, five washes, immunoblot. For orientation: Immunoblotting shows a protein as a band on a membrane.

Assay [1] deals with HA-SALL4 (UniProt Q9UJQ4). The assay is described as follows: co-IP; two sequential immunoprecipitations from HEK293Ts transfected with combinations of epitope tagged SALL4, HDAC1 and GLI1: anti-Flag agarose beads, two elutions with Flag-peptide, re-immunoprecipitation with HA-agarose beads, immunoblot.
Assay [2] addresses HA-SALL4 (UniProt Q9UJQ4). The assay is described as follows: co-IP; transiently transfected cells (HEK293Ts); RIPA lysate, at least 1 mg extract with primary antibody or control IgG overnight at 4 °C, protein G or A agarose 1 h at 4 °C, five washes, immunoblot.
In assay [3] the target is Flag-GLI1 (UniProt P08151). The assay is described as follows: co-IP; two sequential immunoprecipitations from HEK293Ts transfected with combinations of epitope tagged SALL4, HDAC1 and GLI1: anti-Flag agarose beads, two elutions with Flag-peptide, re-immunoprecipitation with HA-agarose beads, immunoblot.
In another assay the target is T2, Flag-ΔBTB-REN (UniProt Q693B1).
T2 sequence: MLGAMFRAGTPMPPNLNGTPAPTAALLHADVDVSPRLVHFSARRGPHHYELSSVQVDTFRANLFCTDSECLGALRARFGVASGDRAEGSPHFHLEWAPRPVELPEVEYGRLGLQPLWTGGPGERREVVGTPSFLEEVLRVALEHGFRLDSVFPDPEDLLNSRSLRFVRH
The assay is described as follows: co-IP; transiently transfected cells (HEK293Ts); RIPA lysate, at least 1 mg extract with primary antibody or control IgG overnight at 4 °C, protein G or A agarose 1 h at 4 °C, five washes, immunoblot.

Assay [4] concerns the target Flag-GLI1 (UniProt P08151). The assay is described as above.

“SALL4 WT (VectorBuilder, N-terminal tagged 3xHA-6xHis) (from UniProt Q9UJQ4 1-1053)”: in the assay with Flag-REN WT, the binding result is listed as “binds”.

As for “ΔZFC4-SALL4 (from UniProt Q9UJQ4 1-1053)”, the binding entry with Flag-REN WT is “binds”. Same read-out and setting: the result for “ΔZFC1-SALL4 (from UniProt Q9UJQ4 1-1053)” reads “binds”; that for “ΔNuRD-SALL4 (from UniProt Q9UJQ4 13-1053) (domain or fragment)”, “binds”. As for “exogenous HDAC1 (Flag-/HA-HDAC1) (from UniProt Q13547 1-482) (enzyme)”, the binding entry with HA-SALL4 [1] and with HA-SALL4 [2] was “binds” throughout. In the case of “endogenous SALL4 (from UniProt Q9UJQ4 1-1053)”, the binding entry with Flag-REN WT is “binds”.

Take HA-SALL4 (from UniProt Q9UJQ4 1-1053): the binding result with Flag-GLI1 [3], with Flag-ΔBTB-REN, with Flag-GLI1 [4] and with Flag-REN WT was “binds” throughout. With “ΔZFC2-SALL4 (from UniProt Q9UJQ4 1-1053)”, the binding entry with Flag-REN WT is on record as “binds”.
